In patent publication US20030120038A1:
No constants are given. Whether binding was seen depends on the method and setting. Some entries that bind do so weakly or less than the wild type.

The chains behind the UniProt entries cited, without tags or fusion partners. Where a name states a change or a piece, a line headed by the entry shows the natural chain unless it says otherwise.
UniProt P17948: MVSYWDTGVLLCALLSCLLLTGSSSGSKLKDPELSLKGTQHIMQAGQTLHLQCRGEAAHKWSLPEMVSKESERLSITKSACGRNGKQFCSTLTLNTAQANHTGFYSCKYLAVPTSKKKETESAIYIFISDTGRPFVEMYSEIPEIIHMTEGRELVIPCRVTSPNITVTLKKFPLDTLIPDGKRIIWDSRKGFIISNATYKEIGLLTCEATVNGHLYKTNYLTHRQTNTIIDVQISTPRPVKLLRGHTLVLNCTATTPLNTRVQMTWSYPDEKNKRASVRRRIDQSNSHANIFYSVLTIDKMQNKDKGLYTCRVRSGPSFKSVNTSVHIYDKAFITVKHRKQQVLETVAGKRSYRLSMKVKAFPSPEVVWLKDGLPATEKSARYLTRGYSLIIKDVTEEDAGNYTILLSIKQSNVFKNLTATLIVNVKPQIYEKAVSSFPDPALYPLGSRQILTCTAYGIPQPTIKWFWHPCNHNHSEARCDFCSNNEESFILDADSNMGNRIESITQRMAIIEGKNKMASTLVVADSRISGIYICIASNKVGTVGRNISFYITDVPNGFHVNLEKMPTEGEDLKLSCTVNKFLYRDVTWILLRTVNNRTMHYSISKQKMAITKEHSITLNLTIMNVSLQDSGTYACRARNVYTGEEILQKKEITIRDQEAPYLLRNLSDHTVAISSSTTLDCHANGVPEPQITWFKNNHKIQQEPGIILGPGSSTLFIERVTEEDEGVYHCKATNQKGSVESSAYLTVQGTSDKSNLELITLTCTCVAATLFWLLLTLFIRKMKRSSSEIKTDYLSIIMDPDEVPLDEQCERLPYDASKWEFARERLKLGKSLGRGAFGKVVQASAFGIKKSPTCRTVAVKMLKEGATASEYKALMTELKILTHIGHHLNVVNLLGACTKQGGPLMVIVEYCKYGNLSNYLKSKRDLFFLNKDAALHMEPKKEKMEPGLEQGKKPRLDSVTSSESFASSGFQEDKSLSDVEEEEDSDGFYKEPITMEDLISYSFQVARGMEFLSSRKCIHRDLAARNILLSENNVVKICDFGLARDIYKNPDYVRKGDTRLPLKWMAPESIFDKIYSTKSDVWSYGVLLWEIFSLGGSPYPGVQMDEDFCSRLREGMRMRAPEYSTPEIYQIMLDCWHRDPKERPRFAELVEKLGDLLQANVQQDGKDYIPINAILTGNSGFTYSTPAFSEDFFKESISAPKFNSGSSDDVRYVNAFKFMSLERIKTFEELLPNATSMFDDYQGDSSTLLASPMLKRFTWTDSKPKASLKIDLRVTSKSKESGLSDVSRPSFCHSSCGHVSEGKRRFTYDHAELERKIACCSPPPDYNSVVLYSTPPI

Molecular target: sVEGF-RI, natural soluble form of the FLT VEGF receptor, expressed by baculovirus in Sf9 insect cells (human) (UniProt P17948)
Assay: summary of crosslinking and plate binding

binding: binds
B1: recombinant human PlGF (ligand, UniProt P49763-2 19-149, looked up)
chain: LPAVPPQQWALSAGNGSSEVEVVPFQEVWGRSYCRALERLVDVVSEYPSEVEHMFSPSCVSLLRCTGCCGDENLHCVPVETANVTMQLLKIRSGDRPSYVELTFSQHVRCECRPLREKMKPERCGDAVPRR
modifications: 125I label (chloramine T method) in the tracer form
